The text below walks through data of PMC5292664.

Sequences of proteins named here, by UniProt entry; tags and fusion partners are left off.
UniProt P21926: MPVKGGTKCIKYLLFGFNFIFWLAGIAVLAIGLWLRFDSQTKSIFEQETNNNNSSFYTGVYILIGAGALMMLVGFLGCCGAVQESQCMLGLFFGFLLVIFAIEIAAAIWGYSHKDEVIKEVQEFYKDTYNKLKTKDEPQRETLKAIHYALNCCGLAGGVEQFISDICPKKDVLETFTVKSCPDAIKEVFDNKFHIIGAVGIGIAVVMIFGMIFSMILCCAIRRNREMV

These are yes or no findings as the source states them, for the method shown. Binding seen in cells or lysates may run through a third protein. Some binding calls cover weakened binding; strength is not graded here.

This experiment addresses CD9-RFP (human) (UniProt P21926). Briefly: co-IP; Jurkat E6.1 cells transfected with RFP constructs, lysed in HEPES buffer (25 mM HEPES, 150 mM NaCl, 5 mM MgCl2, pH 7.2) with 1% CHAPS; RFP-Trap_A agarose beads, 1 h at 4 °C; western blot for endogenous CD81 and RFP under nonreducing conditions; background from the Lifeact-RFP control subtracted.

B1: endogenous CD81 (protein, UniProt P60033 1-236)
chain: MGVEGCTKCIKYLLFVFNFVFWLAGGVILGVALWLRHDPQTTNLLYLELGDKPAPNTFYVGIYILIAVGAVMMFVGFLGCYGAIQESQCLLGTFFTCLVILFACEVAAGIWGFVNKDQIAKDVKQFYDQALQQAVVDDDANNAKAVVKTFHETLDCCGSSTLTALTTSVLKNNLCPSGSNIISNLFKEDCHQKIDDLFSGKLYLIGIAAIVVAVIMIFEMILSMVLCCGIRNSSVY
With B1, the binding result was “binds”.
